# Laboratory results published in PubChem BioAssay AID1347423 (Functional Genomics Laboratory (NCATS/FGL), 2020).
# Hit rate of the full screen: of about 52,000 sequences, about 210 (0.4%) were called active.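 How the source made its calls: active means gene whose silencing raises cell survival under the drug, median off-target-corrected z-score across its silencing RNAs 2 or more; inactive means the rest.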 The list shows a part of the results.
# Experiment: Resistance to Poly (ADP-Ribose) Polymerase inhibitor: Gene Identification via Genome-wide siRNA Screen
# Details: mouse BRCA2 R2336H ES cells, olaparib, CellTiter-Glo viability; hits give high values
# Procedure, shortened: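 Genome-wide siRNA screen (3 siRNAs/gene, 20 nM) in mouse ES cells carrying hypomorphic BRCA2 R2336H; olaparib 500 nM added 48 h post-transfection, CellTiter-Glo viability 72 h later. Normalized to plate-median negative control; MAD z-scores, gene median, seed-adjusted.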
row,Sequence,z-score
1,GCUAAAAUAUUAGGGAAGCTT against 1810026J23Rik,inactive: 0.159
2,GGUUUAAGAUUGAGUAUUCTT against Cri1,inactive: 0.0181
3,CCCGGAGGCUUCAAAACAATT against Hsd17b2,inactive: -0.549
4,GAAGAUGACAACCAAACGCTT against Ucn3,inactive: 0.885
5,GAUUCUUGUCGCUCAUAGCTT against V1ra7,inactive: -0.4
6,GCUCUCAGCAAAAACCGAGTT against 4832420M10,inactive: 2.2
7,GGAAGAAAAACAGAGGAGATT against Cts7,inactive: 0.987
8,UGUUCUGGAAUAGAGUAACTT against 2900006N09Rik,inactive: -0.463
9,CGUGUACGACAUCUCCUAUTT against BC003324,inactive: 0.358
10,GCUAACAAGCUAGCAUUUATT against 2610020N02Rik,inactive: -2
11,CCCAAGCAACCCUUAUCAATT against Mcee,inactive: 1.36
12,GGAUAUGUUGAAAGACAGCTT against 4932413O14Rik,inactive: 0.593
13,GGACAUGACUCUAAAAAAATT against BC010552,inactive: 0.843
14,CCUGACCAAGGGACUCUCUTT against 6330514A18Rik,inactive: 0.0711
15,GGAGAAUGAGAUCAACCUGTT against Pah,inactive: 0.0423
16,GGGAGUUAAAUACCUGUGUTT against Dusp22,inactive: -0.45
17,GCUUAUGCAAUAUGAUAACTT against Gnpda2,inactive: 0.552
18,CCUUCUAAGAGAAAAACGUTT against Eps15,inactive: 0.449
19,GGAAAUGGAGAAAUAUGCATT against Plod3,inactive: 2.65
20,GGAAGGUACCAGGUGAUUGTT against Nmnat3,inactive: 1.39
21,GGUCAACAAGGGCUUAUAGTT against Rpl22,inactive: -0.592
22,GGAUAAAGGAAUCUGAUCUTT against C030018G13Rik,inactive: 1.03

# Two records drawn at random from those above, as already listed:
row,Sequence,z-score
5,GAUUCUUGUCGCUCAUAGCTT against V1ra7,inactive: -0.4
7,GGAAGAAAAACAGAGGAGATT against Cts7,inactive: 0.987

# A second format for part of the listing above:
row | Sequence | z-score
5 | GAUUCUUGUCGCUCAUAGCTT against V1ra7 | inactive: -0.4
6 | GCUCUCAGCAAAAACCGAGTT against 4832420M10 | inactive: 2.2
7 | GGAAGAAAAACAGAGGAGATT against Cts7 | inactive: 0.987

# Carrying on:

row,Sequence,z-score
1,GGAGGAGAUUGUCCAGAAATT against Ecm1,inactive: -0.217
2,GGAUCUACGAAAAAGAUGATT against Crygb,inactive: 0.051
3,GGUGAACUUGAAGUGCCUCTT against Tna,inactive: 0.317
4,GGUGACCAAUCUGUAUGUUTT against Madcam1,inactive: 0.603
5,CCAUUUCUAAGUGUGAAAGTT against 4632428N05Rik,inactive: 0.242
6,GGUACUUUCGGACUCAGUUTT against Ipp,inactive: -1.89
7,GGCAUAUCAACUGUCGUUCTT against Cyp2r1,inactive: 0.303
8,GCCACCAGUGCUUUUCAAGTT against Gm962,inactive: 0.407
9,CGAGGAGAUCAGCUACUUUTT against Lin7c,inactive: -0.895
10,GCAAAGAUUGUUUUUGCUGTT against Oat,inactive: 0.236
11,GGAUAAACUUAAACAACUCTT against Tnpo2,inactive: 0.543
12,CCAAGAACUGCUCAUUCAGTT against Gm123,inactive: 0.354
13,GGUGAUGGUAACUCAACGATT against BC022641,inactive: -1.72
14,GCUUGCAUAAAUUGCUAAATT against Xrcc4,inactive: 0.542
15,GGGUUUCUCCAGUAUGCAUTT against Mr1,inactive: 0.0279
16,GCCUCUUUGAUAGCAAAAGTT against Cct6a,inactive: 0.0125
17,GUGACAAAAACAUCCAAGCTT against Olfr456,inactive: 0.758
18,GGAGCAGUAUGAAAGGGAUTT against Trap1a,inactive: -0.602
19,GUGUAAAAGUGCAAAGAGATT against Klra7,inactive: 0.802
20,CCUGAAAGAACGGGAGUAGTT against Mab21l2,inactive: -3.52
21,GGGAUUGAGGGAGAUUUUCTT against 1600002H07Rik,inactive: 2.55
22,GGACAUCGAGCUUCAGAUCTT against Dnm1l,inactive: -0.515

# A run of entries taken from the entries so far, for reference:
row,Sequence,z-score
3,GGUGAACUUGAAGUGCCUCTT against Tna,inactive: 0.317
4,GGUGACCAAUCUGUAUGUUTT against Madcam1,inactive: 0.603
5,CCAUUUCUAAGUGUGAAAGTT against 4632428N05Rik,inactive: 0.242

# (listing goes on)

row,Sequence,z-score
1,CGUACUCUUGGAGAGGAUUTT against Sva,inactive: 0.626
2,CGACUCCGGCAUCUAUGAUTT against Cmklr1,inactive: 0.457
3,GGCAUGUGGAAAACCUCCUTT against 1700006D24Rik,inactive: -0.606
4,GCUGGACACGGAAGGUAUATT against Igsf8,inactive: -0.279
5,GGAGACUGAAGUCCAUCAATT against Atp5c1,inactive: -2.33
6,GGGCUGGGAGACAAAGAAATT against A130050O07Rik,inactive: -1.27
7,CGUAGAGAUCAGUUCAAUGTT against Clock,inactive: -0.2
8,GGAGAUCUAUUACCACGGATT against Arrb1,inactive: -0.648
9,GGAUAGGGCAUGGAAAUCCTT against Scnn1g,inactive: 1.93
10,GCAUUCAAUGUUCUUAAGCTT against Tmc3,inactive: 0.183
11,GGCGACAGGUCCUGUAAUGTT against Ddx56,inactive: 0.435
12,CGACCUACUUGGGAUGAUGTT against AY487415,inactive: -2.49
13,GGAUUAGAAUGUCAUGUCUTT against Ddx20,inactive: 1.43
14,GGAUAAAGCCCAGUGAACCTT against C630035N08Rik,inactive: 0.862
15,GGGCGAUGAAGAAGAGAAATT against Smad1,inactive: -1.62
16,CGACGAACGGGUAAAAGGUTT against Pcdha4,inactive: 0.327
17,GUGCCUCUCAUCACUAUCUTT against Olfr571,inactive: -0.175
18,GGUUUGUAGACGACAAUCUTT against Insig1,inactive: 0.173
19,GGACAUGAAAGAAACGGUGTT against Bbc3,inactive: 0.575
20,GGCAGAACUUGCCGAGUAGTT against 2010300G19Rik,inactive: -2.14
21,GCAAGUUAAGGAUAUCAUGTT against Katna1,inactive: 0.32
22,GGAAGUGGACGUGAAACCCTT against Btg3,inactive: -0.889

row,Sequence,z-score
1,CCCGAGACCAUUAAUGAUUTT against Snx3,inactive: 0.327
2,GCUUGUUCGGGAAUCUUAUTT against Olfr292,inactive: 0.0211
3,GGACCGGUGUCUAAUCAGCTT against Capn10,inactive: 0.157
4,GCUUGUGCUCUAAAUAUGATT against 4921513B05Rik,inactive: 0.866
5,GGAACAUUGGUGUUACAGCTT against Atp5j,inactive: -0.285
6,GGAACUAGGACUAAACAACTT against Lrrn2,inactive: -0.131
7,GGGAGCUCCAAGGUUACUUTT against BC043301,inactive: -1.49
8,GGUGUUUGGGCGGUUUGAATT against Snx15,inactive: -2.33
9,GCACUCCACUCUUCCAUCATT against Cxcl16,inactive: 0.82
10,CCUAAUCAGCAAACCAGGUTT against Magee2,inactive: 0.201
11,GGUGCUACAAUUCUGUGCGTT against 4921526K24Rik,inactive: 1.53
12,GGCUAAAUGAGCAAAAUCUTT against Falz,inactive: 0.445
13,GCAUGAUGCAAGGACUCUCTT against Onecut2,inactive: -2.23
14,GGUGAUAAAACCUGUUUCATT against Col19a1,inactive: -1.26
15,GGCUGUGCUUUCUCUUGAUTT against BC037034,inactive: -1.41
16,GCUACUACAGUCAGUCGCATT against Galr2,inactive: 1.13
17,GGGCAUUGGAAAACUAAAGTT against Lrrc1,inactive: 0.289
18,GCCAACUUGUACCAAACGCTT against Slc25a19,inactive: 0.12
19,GGAAUGAUGCCACAGAGGUTT against Sost,inactive: -2.77
20,GGUAAAAGGUGCCCUUCAATT against Olfr1056,inactive: 0.862
21,GCUUGCUCGGAGCUUAAGATT against Pik3c3,inactive: -1
22,GGAUAAUUUGGAUUUCGAGTT against Pcdhgb2,inactive: 1.77

row,Sequence,z-score
1,GGCUACAGGGUCUUAUUUCTT against Alx3,inactive: 1.99
2,GGAUGCAGAUGCUGUGGACTT against S100a1,inactive: 1.41
3,GGACAUAUAUAGCAAGGAGTT against Polrmt,inactive: 0.538
4,GGCAUAUCCUCCUUAUCCATT against Dazl,inactive: 1.2
5,GGUGAGAAAUCGAAGCCCUTT against H1foo,inactive: 0.793
6,CCCGUUUGAGCUACUUCUUTT against Rgs2,inactive: 0.696
7,GCUAACCUUUGGAAUUGGATT against Rnf139,inactive: 1.26
8,GGUAUUCAUAAGAACACAGTT against S3-12,inactive: 1.22
9,AAAGCGCAUUCACAAAAAUTT against Olfr1453,inactive: 1.34
10,GCAGAAAAACCUGUGAAAATT against Pcnp,inactive: -1.06
11,GGAGAGGAAGACUUUGAAUTT against Pin1,inactive: 0.715
12,CCCUCUCUUUGGAUACACATT against Odz4,inactive: -1.5
13,GGAUGCUCAAGGAAAACAGTT against Lipl2,inactive: 0.106
14,AGAAAACUCGAGGUGACCATT against Znhit1,inactive: 1.09
15,CCAGAUGACAAAUUUACCCTT against Tdpoz4,inactive: 0.642
16,CCCAUCAGAUUGUUAUUAATT against Olfr652,inactive: 0.754
17,GCUGUUCCAUGUUAAAAAATT against Esm1,inactive: 0.675
18,GGGACUGGAAUUGACAUCCTT against Trpm4,inactive: 0.848
